Measured values taken from patent publication US20030157516A1, “G protein coupled receptor” (priority 2000, published 2003).

System: wild type CHO cells
Test: [3H]adenine saturation binding on wild type CHO membranes
Settings: single experiments, tested as the radiolabelled form, listed as [^3H] adenine

**Q.** For `Nc1ncnc2nc[nH]c12`, which Kd (100 μM Gpp-NHp) is on record?
**A.** 5 nM, 25 nM, 17 nM

**Q.** What about the Kd (No Gpp-NHp) of the same molecule?
**A.** 34 nM, 15 nM, 30 nM

For part of its entries the source gives two or more results. Only these are listed. An entry can have further records. The values listed for one entry differ, and nothing given here explains why; some may be repeats, others may stem from another dose, organism or construct than stated.
